Reference: PubChem BioAssay AID1347076 (National Center for Advancing Translational Sciences (NCATS), 2019)
Out of some 400,000 compounds screened, about 13,000 (3.2%) were called active. This list was built around the results that the source calls inconclusive (neither active nor inactive); the mix of calls is not that of the screen. Calls follow the shape of the dose curve; as a rule, active = well fitted cell-killing curve with a large enough effect; inconclusive = small, poorly fitted or top-dose-only effect, or effect the other way; inactive = flat fitted curve, though single readings scatter. Potencies of inconclusive entries are doubtful fits and often do not repeat.

assay: qHTS assay for MDR1-selective chemotherapeutics: Primary screen using the drug-selected MDR subline cells KB-V1; conditions: KB-V1 MDR cells viability, CellTiter-Glo, 72 h; activity change, negative = cytotoxicity: at 46.1 µM (top of the series); also: nearly all actives have a fitted effect of over 60% in size
Procedure, shortened: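 Cytotoxicity via CellTiter-Glo luminescence after 72 h compound exposure at 37 degrees C. Cells: drug-selected KB-V1 line, DMEM phenol-red free plus 10% FBS. Compounds tested at multiple concentrations; normalized data fitted to concentration-effect curves.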
% is scaled to controls: 0 for no effect and ±100 for the full control effect; potency is read from the fitted curve at half-maximal effect.

**Q.** Which Potency does the source give for CSCCC(C(=O)NC1CCCC1)n1c(-c2ccccn2)nc2ccccc21 (stereo unspecified) here?
**A.** Its Potency is inconclusive: 9.2 µM [cytotoxic, partial curve].

**Q.** For C(=N\N(c1ccccc1)c1ccccc1)/c1ccc(N2CCOCC2)s1, which Potency is on record?
**A.** Its Potency is “inactive”.

**Q.** For COc1ccc(-c2csc(Nc3cccnc3)n2)cc1OC, which Potency is on record?
**A.** The Potency was inconclusive: 11.6 µM [cytotoxic, partial curve, poor fit].

**Q.** Which Potency does the source give for CC(=O)Nc1ccc(NC(=O)COc2ccc(S(=O)(=O)N3CCCC3)cc2C)cc1 here?
**A.** The Potency was inconclusive: 29.1 µM [rising, single point].

**Q.** With CCNC(=S)Nc1ccc(C)c(Cl)c1 as the compound, how does the Potency read?
**A.** The Potency was “inactive”.

**Q.** Which activity change, negative = cytotoxicity does the source give for CN(CC(=O)NCCc1ccc(S(N)(=O)=O)cc1)S(=O)(=O)/C=C/c1ccccc1 here?
**A.** The activity change, negative = cytotoxicity was inconclusive: -2.95%.

**Q.** With O=C(Nc1ccc2nc(-c3ccco3)[nH]c2c1)c1ccco1 as the compound, how does the Potency read?
**A.** Its Potency is inconclusive: 1.03 µM [cytotoxic, partial curve].

**Q.** For Cc1nc(-c2ccc(F)cc2)c(CC(=O)N2CCN(S(=O)(=O)c3cccc(Cl)c3)CC2)s1, which Potency is on record?
**A.** Its Potency is inconclusive: 29.1 µM [cytotoxic, single point].

**Q.** For Cc1ccc(Cl)cc1N1CCN(C(=O)Cn2ncn3cccc3c2=O)CC1, which Potency is on record?
**A.** The Potency was inconclusive: 32.6 µM [cytotoxic, single point].

**Q.** For O=C(NCc1ccc(F)cc1)c1cc(-c2ccncc2)nc2ccccc12, which Potency is on record?
**A.** Its Potency is inconclusive: 29.1 µM [cytotoxic, partial curve, poor fit].

**Q.** For CCCN1CCC(=O)N(CCN=[N+]=[N-])CC1, which Potency is on record?
**A.** The Potency was “inactive”.

**Q.** For Cc1nc2c(-c3ccc(F)cc3)c(C)nn2c(C)c1CCC(=O)NC(C)CCc1ccco1 (stereo unspecified), which Potency is on record?
**A.** The Potency was “inactive”.

**Q.** With O=C(Nc1nccc(-c2cccs2)n1)c1cccs1 as the compound, how does the Potency read?
**A.** The Potency was inconclusive: 29.1 µM [cytotoxic, single point].

**Q.** Which Potency does the source give for O=C(c1cccc(Br)c1)N1CCN(S(=O)(=O)N2CCCCCC2)CC1 here?
**A.** The Potency was “inactive”.

**Q.** For COc1ccc(OC)c(NC(=O)c2csc(Cl)c2OC)c1, which Potency is on record?
**A.** Its Potency is “inactive”.

**Q.** Which Potency does the source give for COc1ccccc1-c1nnc(NC(=O)CSc2nncn2C)s1 here?
**A.** Its Potency is “inactive”.

**Q.** Which Potency does the source give for O=C(/C=C/c1cccc([N+](=O)[O-])c1)NC1CC2CCC1C2 (stereo unspecified) here?
**A.** Its Potency is inconclusive: 23.1 µM [cytotoxic, partial curve].

**Q.** For Cc1cnc(C(=O)N2CCc3c([nH]c4ccccc34)C2c2ccc(F)cc2)cn1 (stereo unspecified), which Potency is on record?
**A.** The Potency was “inactive”.

**Q.** Which Potency does the source give for COc1cccc(C(=O)Nc2cccc(-c3ccc(N4CCOCC4)nn3)c2)c1 here?
**A.** The Potency was inconclusive: 16.4 µM [cytotoxic, partial curve, poor fit].

**Q.** For O=[N+]([O-])c1ccc(NCCCNS(=O)(=O)c2ccccc2)cc1, which Potency is on record?
**A.** The Potency was inconclusive: 20.6 µM [cytotoxic, partial curve].

**Q.** Which Potency does the source give for CCSC1=N/C(=C\c2cccnc2)C(=O)N1c1ccccc1 here?
**A.** The Potency was active: 18.4 µM.

**Q.** Which Potency does the source give for CCOc1ccc(C(=O)c2ccccc2C(=O)O)cc1OCC here?
**A.** The Potency was inconclusive: 29.1 µM [rising, single point].

**Q.** With CC1(C(=O)NS(=O)(=O)Cc2cccc(Cl)c2)CCN1C(=O)Cc1ccc(Cl)cc1Cl (stereo unspecified) as the compound, how does the Potency read?
**A.** The Potency was “inactive”.

**Q.** For CC(C)C[C@@H](CN1CCC[C@@H]1CN1C(=O)C(=O)NC[C@@H]1Cc1ccccc1)N1C[C@H](Cc2ccccc2)N(CC2CCCCC2)C(=O)C1=O, which Potency is on record?
**A.** Its Potency is inconclusive: 29.1 µM [rising, single point].

**Q.** With Cc1ccc(S(=O)(=O)N(CCc2ccccc2)CC(=O)Nc2ccccc2C)cc1 as the compound, how does the Potency read?
**A.** The Potency was inconclusive: 5.8 µM [cytotoxic, partial curve].

**Q.** With COc1ccc(OC)c(-c2noc(N3CCN(c4ccc(Cl)cc4)CC3)n2)c1 as the compound, how does the Potency read?
**A.** Its Potency is “inactive”.

**Q.** For CC(=O)Nc1ccc(OCC(=O)NCc2ccc(C)cc2)cc1, which Potency is on record?
**A.** The Potency was inconclusive: 29.1 µM [rising, single point].

**Q.** For CSc1ccccc1NC(=O)CN(Cc1ccccc1)S(C)(=O)=O, which Potency is on record?
**A.** The Potency was active: 20.6 µM.

**Q.** Which Potency does the source give for CC(C)CC(=O)NC(=S)Nc1cc(C(F)(F)F)ccc1N1CCOCC1 here?
**A.** Its Potency is active: 18.4 µM.

**Q.** Which Potency does the source give for Cc1ccc(C(O)c2ncc(-c3cccc4ccccc34)[nH]2)cc1F (stereo unspecified) here?
**A.** The Potency was “inactive”.

**Q.** For O=S(=O)(c1ccc(Oc2ccc(S(=O)(=O)N3CCOCC3)cc2)cc1)N1CCOCC1, which Potency is on record?
**A.** The Potency was active: 14.6 µM.

**Q.** With C=CCN(C(=O)c1csnn1)C(C(=O)NC1CCCCC1)c1ccc(Cl)cc1 (stereo unspecified) as the compound, how does the Potency read?
**A.** Its Potency is inconclusive: 9.2 µM [cytotoxic, partial curve].

**Q.** Which Potency does the source give for CC(C)NC(=O)COc1ccc(Cl)cc1Cl here?
**A.** The Potency was inconclusive: 16.4 µM [cytotoxic, single point].

**Q.** With Cc1ccc2[nH]c(=O)c(CN(CCCN(C)C)C(=O)Nc3cccc(Cl)c3)cc2c1 as the compound, how does the Potency read?
**A.** Its Potency is active: 18.4 µM.

**Q.** For Cc1cc(C)cc(NS(=O)(=O)c2ccc3[nH]cc(C(=O)NCCc4ccccc4)c(=O)c3c2)c1, which Potency is on record?
**A.** Its Potency is inconclusive: 25.9 µM [rising, single point].

**Q.** For O=C(NCC1CCN(Cc2ccccc2F)CC1)Nc1ccccc1F, which Potency is on record?
**A.** Its Potency is “inactive”.

**Q.** Which Potency does the source give for COc1ccc(CCNC(=O)c2ccc3c(c2)N(Cc2ccccc2)CCS3)cc1OC here?
**A.** Its Potency is “inactive”.

**Q.** With COc1ccc(-c2c(C)nn3c(N4CCCCCC4)cc(C)nc23)cc1OC as the compound, how does the Potency read?
**A.** The Potency was inconclusive: 29.1 µM [cytotoxic, partial curve, poor fit].

**Q.** For COc1cc(C2C(C#N)=C(N)Oc3c2ccc2ccccc32)ccc1OCC(=O)Nc1cccc(C)c1 (stereo unspecified), which Potency is on record?
**A.** The Potency was inconclusive: 11.6 µM [cytotoxic, partial curve].

**Q.** For CC(=O)Nc1cccc(-c2ccnc3c2CC(C)(C(=O)Nc2ccc(C(C)C)cc2)O3)c1 (stereo unspecified), which Potency is on record?
**A.** The Potency was inconclusive: 29.1 µM [cytotoxic, single point].

**Q.** Which Potency does the source give for COc1cc(NC(=O)CSc2nc3ccccc3n2-c2ccccc2)c(C)cc1[N+](=O)[O-] here?
**A.** Its Potency is active: 8.2 µM.

**Q.** Which Potency does the source give for O=C(Cc1cccs1)Nc1nc(-c2ccccc2)cs1 here?
**A.** The Potency was active: 16.4 µM.

**Q.** Which Potency does the source give for CCc1nc(C)cn1S(=O)(=O)c1ccc(Cl)c(Cl)c1Cl here?
**A.** Its Potency is inconclusive: 25.9 µM [cytotoxic, partial curve, poor fit].

**Q.** For CC1(Cc2ccccc2C#N)C(=O)Nc2ccc(-c3ccc4[nH]ccc4c3)cc21 (stereo unspecified), which Potency is on record?
**A.** Its Potency is active: 6.51 µM.

**Q.** With CCc1nc2c(OCc3ccc(Cl)cc3Cl)cccn2c1N(C)C(C)=O as the compound, how does the Potency read?
**A.** The Potency was inconclusive: 29.1 µM [cytotoxic, single point].

**Q.** For CC1(C)CC(=O)C2=C(C1)NC(=O)CC2c1cc2c(cc1Br)OCO2 (stereo unspecified), which Potency is on record?
**A.** The Potency was inconclusive: 23.1 µM [cytotoxic, partial curve, poor fit].
